This note sets out measurements from the supplement of paper PMC10849652.

Chains of the proteins cited; added tags and fusions are not shown. Lines headed by an entry give the natural chain unless they say otherwise; changes in a name come on top.
UniProt Q8NE18: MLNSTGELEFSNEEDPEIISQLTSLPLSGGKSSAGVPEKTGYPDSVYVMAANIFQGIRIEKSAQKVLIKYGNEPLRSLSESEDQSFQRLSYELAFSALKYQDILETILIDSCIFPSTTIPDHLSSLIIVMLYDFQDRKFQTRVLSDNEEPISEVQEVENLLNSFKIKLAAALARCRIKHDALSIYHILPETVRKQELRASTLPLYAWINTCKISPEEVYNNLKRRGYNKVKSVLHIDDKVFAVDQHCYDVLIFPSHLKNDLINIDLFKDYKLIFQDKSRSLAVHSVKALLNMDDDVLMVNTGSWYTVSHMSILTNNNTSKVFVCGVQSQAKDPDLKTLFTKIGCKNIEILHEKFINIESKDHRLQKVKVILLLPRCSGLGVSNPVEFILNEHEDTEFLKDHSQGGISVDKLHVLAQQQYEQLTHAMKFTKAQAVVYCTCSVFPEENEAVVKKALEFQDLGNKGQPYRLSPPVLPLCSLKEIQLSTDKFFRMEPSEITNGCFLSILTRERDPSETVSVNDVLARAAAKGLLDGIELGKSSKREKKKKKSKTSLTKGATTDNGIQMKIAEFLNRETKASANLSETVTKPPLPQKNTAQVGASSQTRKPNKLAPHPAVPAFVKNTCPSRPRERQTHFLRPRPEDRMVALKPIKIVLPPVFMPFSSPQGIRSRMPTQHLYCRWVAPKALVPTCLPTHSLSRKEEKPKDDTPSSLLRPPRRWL
UniProt O96028: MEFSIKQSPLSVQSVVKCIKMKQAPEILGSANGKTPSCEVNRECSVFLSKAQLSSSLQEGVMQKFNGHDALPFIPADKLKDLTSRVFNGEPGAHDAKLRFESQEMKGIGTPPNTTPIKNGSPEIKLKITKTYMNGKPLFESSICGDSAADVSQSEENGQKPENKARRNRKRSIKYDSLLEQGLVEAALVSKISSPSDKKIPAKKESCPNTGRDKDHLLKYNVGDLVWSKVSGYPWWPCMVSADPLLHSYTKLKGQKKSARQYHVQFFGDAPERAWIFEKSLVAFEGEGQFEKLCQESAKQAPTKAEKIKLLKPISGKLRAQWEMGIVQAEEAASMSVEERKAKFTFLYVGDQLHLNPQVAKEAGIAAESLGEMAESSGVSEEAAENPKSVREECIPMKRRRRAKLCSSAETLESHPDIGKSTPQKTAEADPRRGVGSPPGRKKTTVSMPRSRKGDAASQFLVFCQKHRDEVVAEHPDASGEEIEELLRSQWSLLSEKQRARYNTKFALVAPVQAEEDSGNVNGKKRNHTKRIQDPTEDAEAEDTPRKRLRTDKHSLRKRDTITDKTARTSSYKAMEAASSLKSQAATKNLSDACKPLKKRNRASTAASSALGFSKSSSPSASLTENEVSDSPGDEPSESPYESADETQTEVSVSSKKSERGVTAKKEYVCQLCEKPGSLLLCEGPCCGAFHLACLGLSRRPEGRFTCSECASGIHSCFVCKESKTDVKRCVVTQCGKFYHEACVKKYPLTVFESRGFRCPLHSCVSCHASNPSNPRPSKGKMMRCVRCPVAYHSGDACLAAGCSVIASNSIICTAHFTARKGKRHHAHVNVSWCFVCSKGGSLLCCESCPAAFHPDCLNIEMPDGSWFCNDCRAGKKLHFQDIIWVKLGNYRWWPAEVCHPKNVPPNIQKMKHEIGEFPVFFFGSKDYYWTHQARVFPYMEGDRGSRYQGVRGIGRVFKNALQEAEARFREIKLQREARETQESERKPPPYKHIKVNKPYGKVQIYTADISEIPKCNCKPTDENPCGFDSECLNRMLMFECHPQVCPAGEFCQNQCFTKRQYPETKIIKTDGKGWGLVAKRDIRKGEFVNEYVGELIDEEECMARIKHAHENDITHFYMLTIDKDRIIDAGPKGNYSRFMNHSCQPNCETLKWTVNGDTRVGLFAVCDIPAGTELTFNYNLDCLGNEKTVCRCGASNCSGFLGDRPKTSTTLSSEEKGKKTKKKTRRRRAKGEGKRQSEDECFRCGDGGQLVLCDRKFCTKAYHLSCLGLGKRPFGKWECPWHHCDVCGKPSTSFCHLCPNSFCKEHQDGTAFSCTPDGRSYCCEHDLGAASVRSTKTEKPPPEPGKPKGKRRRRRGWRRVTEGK
UniProt O95848: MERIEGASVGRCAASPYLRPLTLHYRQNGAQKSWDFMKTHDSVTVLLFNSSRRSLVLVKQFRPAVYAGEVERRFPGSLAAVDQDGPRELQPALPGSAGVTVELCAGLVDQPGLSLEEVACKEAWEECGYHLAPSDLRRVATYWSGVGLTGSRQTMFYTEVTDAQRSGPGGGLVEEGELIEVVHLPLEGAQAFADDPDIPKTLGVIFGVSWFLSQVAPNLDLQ
UniProt O43809, whole entry, looked up: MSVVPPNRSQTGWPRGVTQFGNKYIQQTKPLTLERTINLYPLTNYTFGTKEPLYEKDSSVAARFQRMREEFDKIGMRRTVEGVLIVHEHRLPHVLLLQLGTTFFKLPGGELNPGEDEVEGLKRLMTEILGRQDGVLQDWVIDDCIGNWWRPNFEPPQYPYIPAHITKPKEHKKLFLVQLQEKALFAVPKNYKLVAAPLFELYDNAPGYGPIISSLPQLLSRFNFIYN
UniProt Q9H7Z3: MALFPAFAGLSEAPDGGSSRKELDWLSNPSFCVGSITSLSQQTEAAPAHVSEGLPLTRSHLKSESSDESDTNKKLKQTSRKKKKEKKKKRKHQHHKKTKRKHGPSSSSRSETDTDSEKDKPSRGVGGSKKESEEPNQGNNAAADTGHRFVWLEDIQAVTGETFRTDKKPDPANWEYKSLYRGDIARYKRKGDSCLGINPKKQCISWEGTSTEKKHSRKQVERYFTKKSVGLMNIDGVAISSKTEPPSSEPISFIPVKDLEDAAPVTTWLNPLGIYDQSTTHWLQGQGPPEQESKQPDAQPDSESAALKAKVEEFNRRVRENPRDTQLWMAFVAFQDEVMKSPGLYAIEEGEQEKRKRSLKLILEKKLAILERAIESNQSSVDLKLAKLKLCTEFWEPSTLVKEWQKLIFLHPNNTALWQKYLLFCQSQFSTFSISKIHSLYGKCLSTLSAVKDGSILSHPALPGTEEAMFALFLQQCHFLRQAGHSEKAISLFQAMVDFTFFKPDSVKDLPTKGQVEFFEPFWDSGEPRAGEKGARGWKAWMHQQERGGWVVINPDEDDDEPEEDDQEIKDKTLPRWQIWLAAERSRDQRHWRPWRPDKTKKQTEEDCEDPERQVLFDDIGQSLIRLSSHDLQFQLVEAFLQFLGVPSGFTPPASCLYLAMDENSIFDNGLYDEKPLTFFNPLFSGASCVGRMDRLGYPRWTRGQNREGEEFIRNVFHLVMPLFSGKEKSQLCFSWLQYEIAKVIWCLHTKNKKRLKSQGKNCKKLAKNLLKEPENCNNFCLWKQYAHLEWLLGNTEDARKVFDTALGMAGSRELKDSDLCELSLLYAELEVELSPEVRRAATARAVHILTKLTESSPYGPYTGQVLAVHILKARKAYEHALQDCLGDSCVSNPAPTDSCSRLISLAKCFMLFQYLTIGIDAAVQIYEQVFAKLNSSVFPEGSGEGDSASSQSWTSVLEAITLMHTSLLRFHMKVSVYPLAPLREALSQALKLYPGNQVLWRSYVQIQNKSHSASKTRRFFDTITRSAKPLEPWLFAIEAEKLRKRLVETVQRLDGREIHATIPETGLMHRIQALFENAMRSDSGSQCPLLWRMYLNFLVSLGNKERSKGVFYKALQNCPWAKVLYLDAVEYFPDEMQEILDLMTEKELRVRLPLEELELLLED
UniProt Q9BZ95: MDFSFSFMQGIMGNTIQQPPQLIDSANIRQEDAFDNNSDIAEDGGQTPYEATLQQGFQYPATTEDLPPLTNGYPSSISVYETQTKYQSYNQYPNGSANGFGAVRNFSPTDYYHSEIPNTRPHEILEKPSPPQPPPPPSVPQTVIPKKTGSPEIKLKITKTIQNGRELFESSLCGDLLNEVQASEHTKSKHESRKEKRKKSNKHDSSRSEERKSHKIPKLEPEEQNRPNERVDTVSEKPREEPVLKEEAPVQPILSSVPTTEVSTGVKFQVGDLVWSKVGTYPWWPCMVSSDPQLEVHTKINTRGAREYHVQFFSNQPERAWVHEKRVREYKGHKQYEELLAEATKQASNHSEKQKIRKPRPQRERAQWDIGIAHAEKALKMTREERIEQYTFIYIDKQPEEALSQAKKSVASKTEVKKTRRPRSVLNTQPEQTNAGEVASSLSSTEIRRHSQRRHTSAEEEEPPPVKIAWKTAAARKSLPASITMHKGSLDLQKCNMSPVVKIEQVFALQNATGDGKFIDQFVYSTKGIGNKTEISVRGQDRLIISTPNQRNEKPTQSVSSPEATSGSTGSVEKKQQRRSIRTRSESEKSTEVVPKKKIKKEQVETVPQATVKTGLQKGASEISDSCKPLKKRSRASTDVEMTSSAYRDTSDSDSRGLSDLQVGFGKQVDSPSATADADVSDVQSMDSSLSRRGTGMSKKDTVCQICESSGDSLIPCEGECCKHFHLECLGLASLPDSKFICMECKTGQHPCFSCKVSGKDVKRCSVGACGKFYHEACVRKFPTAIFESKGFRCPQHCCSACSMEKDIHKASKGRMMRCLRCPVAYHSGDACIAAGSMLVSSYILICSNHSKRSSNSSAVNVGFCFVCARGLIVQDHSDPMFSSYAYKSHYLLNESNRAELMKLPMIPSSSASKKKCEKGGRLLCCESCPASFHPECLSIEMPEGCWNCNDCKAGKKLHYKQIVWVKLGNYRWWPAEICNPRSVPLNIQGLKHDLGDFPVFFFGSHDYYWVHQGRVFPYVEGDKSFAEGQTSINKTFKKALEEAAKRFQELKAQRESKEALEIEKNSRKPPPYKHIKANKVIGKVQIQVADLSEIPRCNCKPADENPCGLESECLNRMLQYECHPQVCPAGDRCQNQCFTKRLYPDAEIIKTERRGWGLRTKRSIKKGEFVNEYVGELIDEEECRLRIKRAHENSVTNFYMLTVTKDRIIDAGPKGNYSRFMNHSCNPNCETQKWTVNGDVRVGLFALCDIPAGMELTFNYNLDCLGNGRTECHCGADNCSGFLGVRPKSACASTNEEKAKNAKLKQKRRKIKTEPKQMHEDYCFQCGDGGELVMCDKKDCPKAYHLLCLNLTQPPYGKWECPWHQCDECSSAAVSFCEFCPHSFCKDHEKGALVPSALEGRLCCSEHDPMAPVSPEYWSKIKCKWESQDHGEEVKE
UniProt O75052: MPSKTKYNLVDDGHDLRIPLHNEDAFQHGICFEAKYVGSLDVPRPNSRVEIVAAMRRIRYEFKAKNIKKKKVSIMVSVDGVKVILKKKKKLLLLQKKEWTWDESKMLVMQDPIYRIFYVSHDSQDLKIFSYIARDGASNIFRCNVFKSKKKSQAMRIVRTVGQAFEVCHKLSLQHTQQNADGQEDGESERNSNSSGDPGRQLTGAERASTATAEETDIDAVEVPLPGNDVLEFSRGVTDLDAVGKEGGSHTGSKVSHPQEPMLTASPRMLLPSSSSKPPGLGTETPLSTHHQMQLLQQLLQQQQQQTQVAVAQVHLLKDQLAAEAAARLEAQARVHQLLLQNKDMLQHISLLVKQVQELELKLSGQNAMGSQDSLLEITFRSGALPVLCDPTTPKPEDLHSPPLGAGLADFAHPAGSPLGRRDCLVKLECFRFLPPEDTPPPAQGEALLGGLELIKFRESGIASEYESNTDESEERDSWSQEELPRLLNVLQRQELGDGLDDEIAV
UniProt P55786: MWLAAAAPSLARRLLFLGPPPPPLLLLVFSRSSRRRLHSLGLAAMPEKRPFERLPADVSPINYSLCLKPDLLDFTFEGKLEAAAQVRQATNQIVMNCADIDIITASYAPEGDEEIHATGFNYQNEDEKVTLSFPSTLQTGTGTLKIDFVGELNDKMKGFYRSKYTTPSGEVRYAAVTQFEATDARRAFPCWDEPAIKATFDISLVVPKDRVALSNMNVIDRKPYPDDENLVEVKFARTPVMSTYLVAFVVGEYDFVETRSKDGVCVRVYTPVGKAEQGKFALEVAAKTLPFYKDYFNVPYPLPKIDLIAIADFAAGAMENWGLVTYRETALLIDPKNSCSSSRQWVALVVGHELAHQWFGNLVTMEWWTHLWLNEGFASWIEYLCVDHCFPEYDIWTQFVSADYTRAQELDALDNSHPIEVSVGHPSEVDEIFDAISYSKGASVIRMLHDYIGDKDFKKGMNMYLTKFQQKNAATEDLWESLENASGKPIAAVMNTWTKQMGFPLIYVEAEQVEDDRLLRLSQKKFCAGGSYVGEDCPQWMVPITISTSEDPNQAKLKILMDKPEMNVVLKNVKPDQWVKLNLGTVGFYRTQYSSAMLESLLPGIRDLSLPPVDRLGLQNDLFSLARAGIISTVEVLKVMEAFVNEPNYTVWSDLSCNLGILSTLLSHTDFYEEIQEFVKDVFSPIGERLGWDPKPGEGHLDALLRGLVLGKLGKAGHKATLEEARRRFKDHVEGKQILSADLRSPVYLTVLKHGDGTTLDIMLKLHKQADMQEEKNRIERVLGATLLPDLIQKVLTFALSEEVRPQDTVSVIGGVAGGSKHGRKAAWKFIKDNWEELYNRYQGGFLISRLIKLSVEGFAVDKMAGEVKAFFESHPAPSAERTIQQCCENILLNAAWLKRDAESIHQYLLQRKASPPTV

This is one part of the list.

Compound in one experiment: C1=CC=C(C=C1)[C@H](COC2=CC3=C(C=C2)NC(=O)N3)NC(=O)C4=CC=CN(C4=O)CC5=CC(=C(C=C5)F)F
Briefly: log2 fold change, soluble protein after heating vs DMSO (PISA); higher = thermal stabilisation; K562 lysate, 10 uM; active = over 0.2 and 3.5 SD of the protein, either way, in both replicates (recomputed). The method, boiled down:
(§1)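 K562 pellets were dounce-homogenised in PBS pH 7.4 containing 1 mM MgCl2, and the crude extract, at 1 mg/mL protein, was exposed to 10 μM compound for 30 min. Aliquots were heated for 3 min across 48°C-58°C, pooled, brought to 0.5% NP-40 at 4°C and spun at 21,000xg for 90 min, with the supernatant taken as soluble protein. TMTpro 16plex LC-MS/MS with equalised channel sums quantified that protein. Values are log-two fold changes in thermal stability relative to solvent controls, taken from duplicates.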
In the case of NUFIP1 (UniProt Q9UHK0), the log2 fold change was inactive: 0.032.

On to NOLC1 isoform 3 (UniProt Q14978), for which the log2 fold change is inactive: -0.082.

Regarding NSUN7 (UniProt Q8NE18), the log2 fold change was inactive: -0.144.

As to NR2C1 (UniProt P13056), the log2 fold change was inactive: 0.003.

Consider NSD2 (UniProt O96028), for which the log2 fold change was inactive: -0.14.

On to NRGN (UniProt Q92686), for which the log2 fold change was inactive: 0.024.

On to NPLOC4 (UniProt I3L3I1), for which the log2 fold change was inactive: -0.041.

For NUDT14 (UniProt O95848), the log2 fold change is inactive: 0.06.

Consider NUDT21 (UniProt O43809), for which the log2 fold change was inactive: 0.017.

For NR2F2 (UniProt P24468), the log2 fold change is inactive: -0.082.

Consider NRDE2 (UniProt Q9H7Z3), for which the log2 fold change was inactive: -0.167.

In the case of NOMO1 (UniProt Q15155), the log2 fold change is inactive: 0.064.

Consider NSD3 (UniProt Q9BZ95), for which the log2 fold change is inactive: 0.216.

As to NOS1AP (UniProt O75052), the log2 fold change was inactive: -0.404.

In the case of NPL (UniProt Q9BXD5), the log2 fold change is inactive: -0.22.

As for NRIP1 (UniProt P48552), the log2 fold change is inactive: 0.058.

Turning to NPEPPS (UniProt P55786), the log2 fold change was inactive: -0.007.

Compound in a further experiment: CC1=C(SC2=C1C(=N[C@H](C3=NN=C(N32)C)CC(=O)N)C4=CC=C(C=C4)Cl)C
Described as above. Summed up:
as §1
Take NUFIP1 (UniProt Q9UHK0): the log2 fold change was inactive: -0.017.

In the case of NOLC1 isoform 3 (UniProt Q14978), the log2 fold change is inactive: 0.042.

With NSUN7 (UniProt Q8NE18), the log2 fold change was inactive: -0.046.

For NR2C1 (UniProt P13056), the log2 fold change was inactive: -0.092.

As to NSD2 (UniProt O96028), the log2 fold change is inactive: -0.08.

With NRGN (UniProt Q92686), the log2 fold change was inactive: 0.042.

As for NPLOC4 (UniProt I3L3I1), the log2 fold change was inactive: 0.2.

Turning to NUDT14 (UniProt O95848), the log2 fold change was inactive: 0.007.

As for NUDT21 (UniProt O43809), the log2 fold change is inactive: -0.042.

Take NR2F2 (UniProt P24468): the log2 fold change is inactive: -0.117.

Take NRDE2 (UniProt Q9H7Z3): the log2 fold change was inactive: -0.161.

In the case of NOMO1 (UniProt Q15155), the log2 fold change was inactive: 0.099.

Regarding NSD3 (UniProt Q9BZ95), the log2 fold change was inactive: 0.037.

Consider NOS1AP (UniProt O75052), for which the log2 fold change was inactive: 0.154.

Consider NPL (UniProt Q9BXD5), for which the log2 fold change is inactive: 0.113.

For the target NRIP1 (UniProt P48552), the log2 fold change is inactive: 0.112.

Turning to NPEPPS (UniProt P55786), the log2 fold change is inactive: -0.002.

Compound in another experiment: CC1=C2C(=CC=C1)N=C(N(C2=O)C3=CC=CC=C3C)CN4C=NC5=C(N=CN=C54)N
Described as above. The method, boiled down: as §1
For the target NUDT22 (UniProt Q9BRQ3), the log2 fold change was inactive: 0.117.

As to NTRK1 (UniProt P04629), the log2 fold change is inactive: -0.06.

For NSUN7 (UniProt Q8NE18), the log2 fold change was inactive: 0.06.

Consider NR2C1 (UniProt P13056), for which the log2 fold change is inactive: -0.006.

On to NSD2 (UniProt O96028), for which the log2 fold change is inactive: -0.352.

NSD1 (UniProt Q96L73): the log2 fold change is inactive: -0.081.

Take NUDT6 (UniProt P53370): the log2 fold change is inactive: -0.222.

NOM1 (UniProt Q5C9Z4): the log2 fold change was inactive: 0.155.

Turning to NUDT21 (UniProt O43809), the log2 fold change was inactive: 0.004.

NRIP3 (UniProt Q9NQ35): the log2 fold change is inactive: 0.101.

Take NUDT8 (UniProt Q8WV74): the log2 fold change was inactive: 0.026.

Take NOTCH1 (UniProt P46531): the log2 fold change is inactive: 0.097.

In the case of NUBPL (UniProt Q8TB37), the log2 fold change was inactive: -0.098.

With NUDT18 (UniProt Q6ZVK8), the log2 fold change is inactive: -0.041.

Regarding NOL3 isoform 3 (UniProt O60936), the log2 fold change is inactive: -0.099.

Consider NPRL3 (UniProt Q12980), for which the log2 fold change was inactive: 0.08.

As for NMU (UniProt P48645), the log2 fold change is inactive: 0.15.

Consider NOS1AP (UniProt O75052), for which the log2 fold change is inactive: 0.082.

Regarding NPL (UniProt Q9BXD5), the log2 fold change was inactive: -0.065.

With NPEPPS (UniProt P55786), the log2 fold change is inactive: -0.011.

NOL8 (UniProt Q76FK4): the log2 fold change is inactive: -0.093.

As to NOS3 (UniProt P29474), the log2 fold change is inactive: -0.036.

Compound in a further experiment: Cc1sc2c(c1C)C(c1ccc(Cl)cc1)=N[C@@H](CC(=O)OC(C)(C)C)c1nnc(C)n1-2
The description is as above. Summed up:
as §1
NOCT (UniProt Q9UK39): the log2 fold change was inactive: 0.021.

As for NUFIP1 (UniProt Q9UHK0), the log2 fold change was inactive: 0.042.

Turning to NOLC1 isoform 3 (UniProt Q14978), the log2 fold change is inactive: -0.015.

For the target NR2F6 (UniProt P10588), the log2 fold change was inactive: 0.017.

NRSN2 (UniProt Q9GZP1): the log2 fold change was inactive: -0.207.

NTRK1 (UniProt P04629): the log2 fold change is inactive: 0.259.

In the case of NOMO3 (UniProt P69849), the log2 fold change is inactive: -0.011.

For NRGN (UniProt Q92686), the log2 fold change was inactive: 0.159.

In the case of NSD1 (UniProt Q96L73), the log2 fold change is inactive: -0.159.

With NPLOC4 (UniProt I3L3I1), the log2 fold change is inactive: -0.101.

For the target NUDT6 (UniProt P53370), the log2 fold change was inactive: 0.009.

For the target NOM1 (UniProt Q5C9Z4), the log2 fold change is inactive: -0.088.

With NUDT14 (UniProt O95848), the log2 fold change is inactive: -0.112.

For NUDT21 (UniProt O43809), the log2 fold change was inactive: 0.031.

Turning to NOL4L (UniProt Q96MY1), the log2 fold change is inactive: 0.033.

Turning to NUMB isoform 2 (UniProt P49757), the log2 fold change was inactive: -0.207.

Regarding NR2F2 (UniProt P24468), the log2 fold change is inactive: -0.008.

Consider NT5C2 (UniProt Q5JUV3), for which the log2 fold change is inactive: -0.177.

Consider NUDT8 (UniProt Q8WV74), for which the log2 fold change is inactive: 0.003.

With NOTCH1 (UniProt P46531), the log2 fold change is inactive: -0.12.

NUBPL (UniProt Q8TB37): the log2 fold change was inactive: 0.075.

Take NRDE2 (UniProt Q9H7Z3): the log2 fold change was inactive: 0.232.

Turning to NOL3 isoform 3 (UniProt O60936), the log2 fold change is inactive: 0.268.

On to NOMO1 (UniProt Q15155), for which the log2 fold change is inactive: 0.198.

Regarding NSD3 (UniProt Q9BZ95), the log2 fold change is inactive: 0.151.

On to NPL (UniProt Q9BXD5), for which the log2 fold change was inactive: 0.103.

Consider NRIP1 (UniProt P48552), for which the log2 fold change was inactive: -0.071.

Regarding NPEPPS (UniProt P55786), the log2 fold change was inactive: -0.012.

For NOL8 (UniProt Q76FK4), the log2 fold change is inactive: 0.
